Earlier results, collected in patent US20140303322A1, “ANTIMICROBIAL AND BACTERIOSTATIC-MODIFIED POLYMERS FOR CELLULOSE FIBRES” (priority 2012, published 2014).
Some entries share one result that the patent states for a list of compounds.

Settings: free compound, background statement; cited from earlier work

Oc1cc(Cl)ccc1Oc1ccc(Cl)cc1Cl [Triclosan]
water solubility: 10 to 20 µg/mL
